From paper PMC12464105 come the findings set out here.

Chains of the proteins cited; added tags and fusions are not shown. Residues count along the entry.
UniProt P08962, 2-238: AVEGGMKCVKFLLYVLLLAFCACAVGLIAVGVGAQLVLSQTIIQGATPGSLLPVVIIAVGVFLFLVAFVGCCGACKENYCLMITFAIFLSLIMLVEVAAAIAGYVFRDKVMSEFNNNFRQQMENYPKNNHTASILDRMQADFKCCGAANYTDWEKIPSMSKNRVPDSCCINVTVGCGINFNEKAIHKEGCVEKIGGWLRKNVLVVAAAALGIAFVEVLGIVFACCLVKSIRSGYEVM

This series concerns the target CD63 on extracellular vesicles (UniProt P08962). Description: fluorescence strand displacement on streptavidin magnetic beads. The settings on record: EVs 3.5*10^4 particles/mL, Blocker released on EV binding; 3' biotin on aptamer; Aptamer/Blocker annealed in PBS (95 C 5 min, cooled); EVs incubated with Apt63 beads 1 h at 37 C; pH and binding buffer composition not given; protein on the cell surface.

Construct, isoform or probe ends are uncertain for at least one entry. Where cells or extracts were used, other partners may take part. At least one verdict was read from the data and is not stated in words by the source.

In the case of “ATATACACCCCACCTCGCTCCCGTGACACTAATGCTATTTTTT / TGGGGTGTATATTAATACGACTCACTATAGGG [CD63 aptamer/Blocker (Apt63)]”, the binding result is “binds”.
